# Article PMC7210271
# For at least one entry, the source does not settle the construct or the ends of the probe. For some assays here: Weaker means in comparison with the reference protein, sequence or condition of that experiment.
# Assays:
# [1] = tested on: DNMT3A R882H MTase domain + DNMT3L C-terminal domain; assay: EMSA; conditions: 0-600 nM protein, 20 nM DNA, significantly reduced shift; EMSA: 50 mM Tris-HCl pH 7.5, 5% glycerol, 1 mM DTT, gel run at 4 C; recombinant protein; protein details: N-terminal His6-SUMO removed by ULP1
# [2] = tested on: DNMT3A WT MTase domain + DNMT3L C-terminal domain; assay: EMSA; conditions: 0-600 nM protein, 20 nM DNA, multiple shifted bands; EMSA: 50 mM Tris-HCl pH 7.5, 5% glycerol, 1 mM DTT, gel run at 4 C; recombinant protein; protein details: N-terminal His6-SUMO removed by ULP1
sequence,measurement,setting,value
GACGACGACGACGACGACGACGACGACGACGACGAC (double strand) [36-mer (GAC)12 DNA],binding result,[1],binds more weakly
same,binding result,[2],binds
